Data on one molecule can be found in patent US20110008350A1 (published 2011).

For this assay, the target named is T1, CD81 in HEK293 cells (human (HEK293 cells)) (UniProt P60033).
T1 sequence: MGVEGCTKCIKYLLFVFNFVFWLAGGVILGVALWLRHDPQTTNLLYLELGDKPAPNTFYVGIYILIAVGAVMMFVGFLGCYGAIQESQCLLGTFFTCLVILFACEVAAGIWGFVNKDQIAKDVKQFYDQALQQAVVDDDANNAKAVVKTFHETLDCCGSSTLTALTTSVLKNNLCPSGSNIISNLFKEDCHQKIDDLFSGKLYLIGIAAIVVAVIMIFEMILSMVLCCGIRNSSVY
The assay can be described thus: co-immunoprecipitation with anti-FPRP (1F11), 1% CHAPSO-solubilized HEK293 membranes, Western blot.

Results are given in words; binding and its absence hold for the method and conditions named. Binding seen in cells or lysates may run through a third protein. Some binding calls cover weakened binding; strength is not graded here. Tags and fused reporters may be left off the sequences shown.

B1: FPRP (PTGFRN, prostaglandin F2 receptor negative regulator) in HEK293 cells (protein)
chain: VPTATLVRVVGTELVIPCNVSDYDGPSEQNFDWSFSSLGSSFVELASTWEVGFPAQLYQERLQRGEILLRRTANDAVELHIKNVQPSDQGHYKCSTPSTDATVQGNYEDTVQVKVLADSLHVGPSARPPPSLSLREGEPFELRCTAASASPLHTHLALLWEVHRGPARRSVLALTHEGRFHPGLGYEQRYHSGDVRLDTVGSDAYRLSVSRALSADQGSYRCIVSEWIAEQGNWQEIQEKAVEVATVVIQPSVLRAAVPKNVSVAEGKELDLTCNITTDRADDVRPEVTWSFSRMPDSTLPGSRVLARLDRDSLVHSSPHVALSHVDARSYHLLVRDVSKENSGYYYCHVSLWAPGHNRSWHKVAEAVSSPAGVGVTWLEPDYQVYLNASKVPGFADDPTELACRVVDTKSGEANVRFTVSWYYRMNRRSDNVVTSELLAVMDGDWTLKYGERSKQRAQDGDFIFSKEHTDTFNFRIQRTTEEDRGNYYCVVSAWTKQRNNSWVKSKDVFSKPVNIFWALEDSVLVVKARQPKPFFAAGNTFEMTCKVSSKNIKSPRYSVLIMAEKPVGDLSSPNETKYIISLDQDSVVKLENWTDASRVDGVVLEKVQEDEFRYRMYQTQVSDAGLYRCMVTAWSPVRGSLWREAATSLSNPIEIDFQTSGPIFNASVHSDTPSVIRGDLIKLFCIITVEGAALDPDDMAFDVSWFAVHSFGLDKAPVLLSSLDRKGIVTTSRRDWKSDLSLERVSVLEFLLQVHGSEDQDFGNYYCSVTPWVKSPTGSWQKEAEIHSKPVFITVKMDVLNAFKYPLLIGVGLSTVIGLLSCLIGYCSSHWCCKKEVQETRRERRRLMSMEMD
For the molecule B1, the binding entry is listed as “binds”.
